# Results taken from the supplement of paper PMC12889115.
# This is one part of the list. Values are raw readings; no control value is given beside them.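 Primary screen: polymyxin B was added at a level permeabilizing Salmonella outer membranes while sparing inner membranes. DMSO wells, both with and without polymyxin B, established maximum growth. Plate-to-plate variation meant each plate was ranked on its own, and the lowest-OD600 compounds were selected as hits.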
# Test system: Salmonella enterica serovar Typhimurium SL1344
# Assay: bacterial growth OD600 after 18 h with compound and polymyxin B; higher = more bacterial growth (less inhibition)
# Settings: 50 µM, Mueller-Hinton broth
SMILES,bacterial growth OD600 (polymyxin B 1 µg/mL),bacterial growth OD600 (polymyxin B 0.75 µg/mL)
OCCOc1ccccc1CN1CCCC(Nc2ccc(F)cc2)C1 (stereo not given),0.777,
O=C(C[n+]1cc([O-])on1)NCc1cccnc1Oc1ccccc1,0.96,
Cc1cccc(CNC(=O)c2ccc(OC3CCN(S(C)(=O)=O)CC3)c(Cl)c2)n1,0.965,
COc1ccc(CN2CCN(Cc3cccc(C)c3)CC2CCO)cc1C (stereo not given),0.917,
COCC1CCCN(Cc2ccc3c(c2)CN(C(=O)CCCCc2ccccc2)CCO3)C1 (stereo not given),,0.778
Cc1ccc(CCNC(=O)C2CCC(=O)N(Cc3cccc(F)c3)C2)cc1 (stereo not given),0.847,
COc1cc(CC2(CCC(=O)NCc3cc4cc(F)ccc4[nH]3)CCC(=O)N2)ccc1F (stereo not given),,0.845
O=C(c1cccc(OC2CCN(Cc3cc4ccccc4o3)CC2)c1)N1CCCC1,1.04,
Cc1ccccc1CCNC(=O)c1coc(COc2ccc3c(c2)OCO3)n1,0.314,
COc1ccc(CN2CC[C@@H](N3CCN(c4ccccn4)CC3)[C@H](O)C2)cc1F,,0.832
O=C(CCC1CCN(C(=O)CCCc2ccccc2)CC1)Nc1ccccc1,0.764,
COC(=O)c1ccc(CN2CCN(Cc3ccc(OC)c(C)c3C)C(CCO)C2)cc1 (stereo not given),0.902,
O=C(CCc1ccccn1)NC1CCCN(CCc2ccccc2)C1 (stereo not given),1.04,
Cc1nc(CNc2nc3nonc3nc2N2CCSCC2)sc1C,,0.77
CS(=O)(=O)Nc1cc(C(=O)NCCCc2cccnc2)c2c(c1)ncn2CCc1ccccc1,,0.8
C/C=C(\C)CN1CCC(N2CCCC(C(=O)NCc3cccnc3)C2)CC1 (stereo not given),1.2,
CCOc1ccc2nc(N3CCCC3C(=O)NCc3ccccc3-n3cncn3)nc(C)c2c1 (stereo not given),,1
COCCN1C(=O)NC(Cc2ccccc2Cl)(C2CCN(C(=O)c3ccc(C)c(C)c3)CC2)C1=O (stereo not given),,0.816
O=C(CCC1CCCN(C(=O)/C(F)=C/c2ccccc2)C1)N1CCCC1 (stereo not given),,0.671
Cc1cnc(SCCN2CCOCC2)nc1C1CCCN(C(=O)[C@@H]2CSC(=O)N2)C1 (stereo not given in full),,0.772

# Shown with tabs: part of the list above.
SMILES	bacterial growth OD600 (polymyxin B 1 µg/mL)	bacterial growth OD600 (polymyxin B 0.75 µg/mL)
O=C(C[n+]1cc([O-])on1)NCc1cccnc1Oc1ccccc1	0.96	
Cc1cnc(SCCN2CCOCC2)nc1C1CCCN(C(=O)[C@@H]2CSC(=O)N2)C1 (stereo not given in full)		0.772
